All values are in %.
The record does not define 0% and 100%; most values in the screen are far below 50% and negative numbers occur (in some assays of this library far below -100).
Compounds were drawn at random from those tested, without regard to their results.
A dash means the value is not listed here; it may have been measured.

Protein sequences, listed by entry. Tags and fused reporters are not part of them.
UniProt E9BF75, entry or part of it: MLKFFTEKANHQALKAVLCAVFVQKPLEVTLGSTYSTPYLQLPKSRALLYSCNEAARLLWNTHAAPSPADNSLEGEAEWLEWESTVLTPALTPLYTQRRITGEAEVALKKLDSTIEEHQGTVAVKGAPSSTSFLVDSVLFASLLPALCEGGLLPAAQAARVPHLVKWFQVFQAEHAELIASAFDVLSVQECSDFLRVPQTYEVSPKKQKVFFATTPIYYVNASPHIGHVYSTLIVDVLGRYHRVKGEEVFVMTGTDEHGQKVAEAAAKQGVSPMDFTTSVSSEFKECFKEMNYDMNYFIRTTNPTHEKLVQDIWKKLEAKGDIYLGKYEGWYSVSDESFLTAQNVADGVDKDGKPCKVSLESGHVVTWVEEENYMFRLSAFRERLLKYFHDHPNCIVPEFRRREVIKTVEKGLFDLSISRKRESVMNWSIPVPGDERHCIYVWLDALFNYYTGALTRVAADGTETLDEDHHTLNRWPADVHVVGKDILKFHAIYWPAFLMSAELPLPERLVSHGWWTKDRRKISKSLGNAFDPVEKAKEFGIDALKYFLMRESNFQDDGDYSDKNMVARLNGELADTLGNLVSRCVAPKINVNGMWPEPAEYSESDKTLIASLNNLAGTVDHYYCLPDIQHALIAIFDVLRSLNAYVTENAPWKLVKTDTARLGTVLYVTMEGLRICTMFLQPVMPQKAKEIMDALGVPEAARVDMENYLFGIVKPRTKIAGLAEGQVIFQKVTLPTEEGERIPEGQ

Mtb heat-shock: 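Assay on Mycobacterium tuberculosis, filed only as a heat shock assay from Cornell; the read-out is not stated. The concentration is filed as 10 mM, unlikely as a test dose, so the dose is not known. Higher reads as stronger inhibition (inferred: compounds with an IC50 in retests scored well above the rest). About 69,000 compounds were tested under these conditions; 1.4% (about 930) showed 50% or more at least once.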
LdMetRS: 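Methionyl-tRNA synthetase (putative), Leishmania donovani (UniProt E9BF75). Primary screen of methionyl-tRNA synthetase; the read-out is not stated. The test concentration is not given. The values are filed as inhibition. About 68,000 compounds were tested under these conditions; 0.035% (about 24) showed 50% or more at least once.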

| Compound | Mtb heat-shock | LdMetRS |
|---|---|---|
| `[H][C@@]12CS(=O)(=O)C[C@]1([H])N(Cc1cc(Cl)cc(Cl)c1)CCN2CCC` | 31.79 | - |
| `Cc1cncc(NCc2ccccc2N2CCOCC2)c1` | 13.47 | 10.86 |
| `CC(C)=CCN1CCN(Cc2cccc(C)n2)CC1CCO` (stereo not given) | -20.06 | 9.025 |
| `Cl.O=C(c1cccc(F)c1)N1CCCC1c1ncc2c(n1)CCNC2` (stereo not given) | -29.7 | - |
| `CN(Cc1cn2ccccc2n1)C1CCCN(c2cccnn2)C1` (stereo not given) | 6.228 | 0.3484 |
| `O=C(O)C(F)(F)F.[H][C@@]12CN(C(=O)C3CCOCC3)C[C@]1([H])OCCN2Cc1c(C)noc1C` | -18.06 | - |
| `O=C(CCN1CCCCO1)N1CCC(CO)(Cc2ccccc2)CC1` | -14.39 | 16.62 |
| `COc1cccc(-n2cc(-c3ccnc(N[C@@H](CO)C(C)C)n3)cn2)c1` | 14.32 | 9.059 |
| `[H][C@@]12CCCO[C@]1([H])[C@H](NC(=O)CC1CC1)CN(C(=O)c1ccoc1)C2` | 35.31 | - |
| `CC(C)CC(=O)N1CC(=O)c2sc(Nc3ccc(C#N)cc3)nc2C1` | 7.361 | 3.155 |
| `[H][C@]12CCN(c3ccc(C)nn3)C[C@@]1([H])CN(Cc1c[nH]cn1)C2` | -7.204 | - |
| `Cc1nc(CC(=O)NCCN2CCC(c3ccccc3C)C2)cs1` (stereo not given) | -0.9579 | 18.35 |
| `Cn1c2c(ccc1=O)CC(NS(C)(=O)=O)CC2` (stereo not given) | -10.65 | 5.226 |
| `COC(=O)NCC(=O)NC1CC(C)(C)Cc2oc(C)cc21` (stereo not given) | 32.22 | 8.865 |
| `O=C(c1ccco1)N1CCc2onc(Cn3cccn3)c2C1` | -15.16 | -1.961 |
| `O=C(c1cn(-c2ccc(C(F)(F)F)cn2)nn1)N1CCCCCC1` | 12.62 | 11.06 |
| `O=C(NC1CC1)[C@@H]1CCO[C@@H]2CCN(Cc3ccco3)C[C@H]21` | - | 8.955 |
| `Cc1ncsc1-c1nnc(C2CCN(Cc3cccc(F)c3F)CC2)o1` | -34.48 | -3.529 |
| `CCc1nc(C)sc1C(=O)N1CCN(c2ncccc2C)CC1` | -20.75 | 3.922 |
| `COc1cc(N2CC3(CCN(S(C)(=O)=O)C3)C2)ncn1` | - | 9.929 |
| `Cc1cccc(C(=O)N(CCCO)S(=O)(=O)c2cccs2)c1` | -31.97 | -5.412 |
| `O=C(NCCC1CN(Cc2cccnc2)CCO1)c1ccsc1` (stereo not given) | -43.73 | 6.959 |
| `CO[C@H]1CCN(c2nnc(C)s2)C[C@@H]1Cc1cccc(C)c1` | - | 8.143 |
| `CCc1noc(CNc2nc(-c3cccnc3)nc3c2CCNCC3)n1` | -6.144 | 9.6 |
| `CCN(Cc1noc(CC(C)C)n1)Cc1cc2ccc(F)cc2[nH]c1=O` | 43.11 | 11.25 |
| `COc1ccc(NS(=O)(=O)c2cnc(NC(C)=O)s2)cc1` | 8.11 | 0.7538 |
| `Cc1cccc(CN2CCN(C(=O)c3cccnc3O)CC2)c1` | -38.62 | 14.21 |
| `Cc1ccc(C(=O)N2CCCC(c3nncn3C)C2)c(C)c1` (stereo not given) | -1.7 | 21.55 |
| `NC(=O)c1ccnc(N2CCCC(CO)(Cc3ccc(F)cc3)C2)c1` (stereo not given) | -3.123 | 12.47 |
| `COc1ccc2nc(C3CC3)cc(C(=O)NCC(=O)N(C)C)c2c1` | -8.335 | 4.01 |
| `O=C(c1cscn1)N1CCCC2(CCN2Cc2cccc(F)c2)C1` (stereo not given) | - | 8.312 |
| `CCn1ccc(NC(=O)C2CCC(=O)N2Cc2ccc(C)o2)n1` (stereo not given) | 0.05146 | 6.954 |
| `Cc1cnn(CC(C)NCc2csc(-c3ncccn3)n2)c1` (stereo not given) | 10.59 | 12.89 |
| `O=C(O)C(F)(F)F.[H][C@@]12CN(Cc3ccc(C)cc3)C[C@]1([H])CN(c1ncccn1)C2` | -25.54 | - |
| `NC(=O)C1(c2cnccn2)CCCN1Cc1ccc(F)c(F)c1` (stereo not given) | -7.1 | 5.208 |
| `Cc1ccc2c(n1)N(CC1CC1)CCN(C(=O)NC1CC1)C2` | - | 6.667 |
| `CCOC(C)c1nc(CN2CCN(c3ncc(C)cn3)CC2)cs1` (stereo not given) | -21.75 | 2.341 |
| `Cc1nc(C)n(CC(C)C(=O)N2CCC(CN3CCOCC3)CC2)n1` (stereo not given) | -5.713 | 9.804 |
| `[H][C@@]12COC[C@@H](Cc3nc(C)no3)[C@]1([H])CN(S(=O)(=O)CC)C2` | 2.81 | - |
| `COCCN1CCC(C(=O)N(C)Cc2cccc(Cl)c2)C1` (stereo not given) | -25.67 | 2.994 |
| `c1cncc(CN(CCCn2ccnc2)CC2CCOC2)c1` (stereo not given) | -24.69 | 13.32 |
| `Cc1cc(NC(=O)CN2CCc3nn(C)c(=O)cc3C2)no1` | 4.863 | 10.86 |
| `O=C(c1cccnc1)N1C[C@@H]2OCC(=O)N(Cc3cccnc3)[C@@H]2C1` | - | 11.19 |
| `CCS(=O)(=O)N1CCC2(CC1)CN(c1cccnc1)C(=O)CO2` | - | 13.95 |
| `Cn1nccc1-c1cccc(CC2CCN(S(C)(=O)=O)C2)n1` (stereo not given) | 0.7611 | 15.12 |
| `COc1ccc(F)c(CN2CCCC3(CCN(C(=O)CSC)C3)C2)c1` (stereo not given) | 1.315 | 8.602 |
| `CCn1nc(C)c(CN(CCCN(C)C)Cc2ccccn2)c1C` | -9.336 | 11.11 |
| `CCC(C)Oc1ccc(CNCCNS(C)(=O)=O)cc1Cl` (stereo not given) | 14.23 | 20.95 |
| `Cc1cc(C(F)(F)F)n2nc(C3CCCN3C3CCSCC3)cc2n1.O=C(O)CC(O)(CC(=O)O)C(=O)O` (stereo not given) | -13.15 | - |
| `CN(C)S(=O)(=O)N1CC(c2ccnc(Nc3ccccn3)n2)C1` | -0.3653 | 9.841 |
| `Cc1cccc(CN2CCCC2c2cccc(CCC(=O)O)n2)c1` (stereo not given) | -20.44 | 14.69 |
| `O=C(O)C(F)(F)F.[H][C@@]12CCN(CC3CCCC3)C[C@]1(C(=O)N1CCOCC1)CCO2` | -48.55 | - |
| `CC(C)c1nc(Cn2cncn2)n(-c2ccccn2)n1` | -26.65 | 7.843 |
| `CC(C)C1Nc2ccccc2C(=O)N1CC(=O)Nc1nc2c(s1)CCC2` (stereo not given) | -0.3209 | 23.82 |
| `O=C(O)CC(O)(CC(=O)O)C(=O)O.[H][C@]12CC[C@](O)(c3ccc(C)cn3)[C@@]1([H])CN(Cc1ccc(OC)cc1F)C2` | -13.98 | - |
| `CN(Cc1cccnc1)c1nc(-c2ccccn2)nc2c1CCNCC2` | 7.828 | 12.9 |
| `Cc1ccc(-c2nc(CNCC3CN(C)CCO3)cs2)o1` (stereo not given) | 17.38 | 8.711 |
| `O=C(CCn1ccnn1)N1CCCC(n2cncn2)C1` (stereo not given) | 6.65 | 5.42 |
| `O=C(CCc1cccs1)NCC1CCCN1c1cccnn1` (stereo not given) | 10.24 | 12.53 |
| `CCc1nc(CCNC(=O)C2CC2)sc1C` | 12.16 | - |
| `CN(C)C(=O)c1csc(-c2ccoc2)n1` | -1.614 | 6.873 |
| `CCOC(C)c1nc(CN2CCC(NC(C)C)CC2)cs1` (stereo not given) | -36.83 | 21.74 |
| `Cc1cc(C2CCCCCN2Cc2cn(C)nc2C)no1` (stereo not given) | -5.421 | 21.36 |
| `Fc1ccc(-c2nnc(CN3CCCC(Cn4cncn4)C3)o2)cc1` (stereo not given) | -1.979 | 26.14 |
| `CN(C)Cc1nn(C)c2c1CCN(C(=O)c1cccnc1)C2` | 10.71 | 12.5 |
| `COc1cccc(Cn2ncnc2COC(C)C)c1` | 2.452 | 10.41 |
| `O=C([C@H]1CCS(=O)(=O)[C@@H]2CN(Cc3ccc(F)cc3)C[C@H]12)N1CCCC1` | - | 3.665 |
| `CC1c2ncc(COCC3CC3)n2CCN1C(=O)c1ccnnc1` (stereo not given) | -20.86 | 11.76 |
| `O=C(CC1Cn2ncnc2NC1=O)Nc1ccc(F)c(F)c1` (stereo not given) | 0.3615 | 10.86 |
| `CC(=O)N(Cc1ncc(C)o1)C1CCN(CCCc2cnn(C)c2)C1` (stereo not given) | -6.52 | 6.993 |
| `CCC(=O)N1CCC2(COCc3c(C)nc(N(C)C)nc32)C1` (stereo not given) | -5.417 | 5.714 |

For reference, 5 entries once more:

| Compound | Mtb heat-shock | LdMetRS |
|---|---|---|
| `Fc1ccc(-c2nnc(CN3CCCC(Cn4cncn4)C3)o2)cc1` (stereo not given) | -1.979 | 26.14 |
| `Cn1c2c(ccc1=O)CC(NS(C)(=O)=O)CC2` (stereo not given) | -10.65 | 5.226 |
| `O=C([C@H]1CCS(=O)(=O)[C@@H]2CN(Cc3ccc(F)cc3)C[C@H]12)N1CCCC1` | - | 3.665 |
| `CN(Cc1cn2ccccc2n1)C1CCCN(c2cccnn2)C1` (stereo not given) | 6.228 | 0.3484 |
| `COc1ccc2nc(C3CC3)cc(C(=O)NCC(=O)N(C)C)c2c1` | -8.335 | 4.01 |

Data taken from ChEMBL document CHEMBL3988442, “University of Dundee, Small-Polar-MMV Screening Library” (2021).